This data set relates to Pan T cells. Put plainly: CSR surface expression and cellular activation (FSC-A, CD69), flow cytometry. As to conditions: 10 μg mRNA electroporation, two days later. It is filed as cell-based, human.

The results in this text go back to US20210107993A1, “CARTYRIN COMPOSITIONS AND METHODS FOR USE” (Poseida Therapeutics, Inc., priority 2018, published 2021).

B1: CD2z CSR: chimeric stimulatory receptor: wild type CD2 and CD3z intracellular stimulation domain, SEQ ID NO: 17912 (protein)
chain: MSFPCKFVASFLLIFNVSSKGAVSKEITNALETWGALGQDINLDIPSFQMSDDIDDIKWEKTSDKKKIAQFRKEKETFKEKDTYKLFKNGTLKIKHLKTDDQDIYKVSIYDTKGKNVLEKIFDLKIQERVSKPKISWTCINTTLTCEVMNGTDPELNLYQDGKHLKLSQRVITHKWTTSLSAKFKCTAGNKVSKESSVEPVSCPEKGLDIYLIIGICGGGSLLMVFVALLVFYITKRKKQRSRRNDEELETRAHRVATEERGRKPHQIPASTPQNPATSQHPPPPPGHRSQAPSHRPPPPGHRVQHQPQKRPPAPSGTQVHQQKGPPLPRPRVQPKPPHGAAENSLSPSSNRVKFSRSADAPAYKQGQNQLYNELNLGRREEYDVLDKRRGRDPEMGGKPRRKNPQEGLYNELQKDKMAEAYSEIGMKGERRRGKGHDGLYQGLSTATKDTYDALHMQALPPR
On to B1, for which the “surface expression of CSR” value was “Increased surface expression”.
